These results are taken from PubChem BioAssay AID463205 (Broad Institute, 2010).

SMILES strings stand for the structures. Among all 2,400 compounds or so, about 20 (0.8%) were called active.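 The calls were made as follows: active = AC50 no more than ten times the highest tested concentration, or full inhibition at every dose giving a flat fit (cut at about 30 µM in these data); inconclusive = flat fit with activity between 30% and 70%, or poor-quality invalid fit; inactive = AC50 more than ten times the top tested dose.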 The list shows a part of the results. A value given as a limit tells only on which side of the number the result lay.

The assay can be described thus: inhibitors of ADP-Glo detection reagents, dose response, artefact control for GSK-3a inhibitor project, biochemical, luminescence, cell-free, homogeneous (AID 463205).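 Also: kinase-free counter-screen against the ADP-Glo detection reagents only; potency is for inhibitors that reduce the luminescence signal.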 The settings on record: 5 uM ADP. In general terms: In ADP-Glo the light output rises with the ADP produced.
Turning to `CCCc1nc2oc3cc(OC)ccc3c(=O)c2c(=O)n1Cc1ccco1`, the AC50 – broadly, the concentration at which the activity in the assay is half-maximal – is inactive: > 30 µM.
The figure for `CCNC(=S)NNC(=O)c1cccs1` is inactive: > 30 µM; for `CCn1c(SCC(=O)N/N=C/c2cccs2)nc2ccccc21` it is inactive: > 30 µM; for `Brc1cccc(CSc2nnc(-c3ccncc3)o2)c1` it is inactive: > 30 µM.
The figure for `COc1ccccc1C(CNc1ccc(S(=O)(=O)N2CCCC2)cc1[N+](=O)[O-])N(C)C` (configuration not stated) is inactive: > 30 µM; for `CCOC(=O)c1c2c(n(C)c1C)C(=O)C(=O)c1ccc(Br)cc1-2` it is inactive: > 30 µM.
In the case of `COc1ccc(NC(=O)CN(C)C2CCCCC2)c([N+](=O)[O-])c1`, the AC50 is inactive: > 30 µM.
Regarding `Fc1ccc(C2=Nn3c(nnc3-c3ccco3)SC2)cc1`, the AC50 is inactive: > 30 µM.
On to `CC(C)(C)c1cc(-c2nc(N)nc(N)n2)c(O)c(C(C)(C)C)c1`, for which the AC50 is inactive: > 30 µM.
Consider `O=C(CSc1ccc(F)cc1)Nc1ccc2c(c1)C(=O)NC2=O`, for which the AC50 was inactive: > 30 µM.
The figure for `O=C(O)c1cc(NC(=O)c2ccccc2[N+](=O)[O-])ccc1O` is inactive: > 30 µM; for `CC(C)=CCc1c(O)cc(O)c2c(=O)c(O[C@@H]3O[C@@H](C)[C@H](O)[C@@H](O)[C@H]3O)c(-c3ccc(O)cc3)oc12` it is inactive: > 30 µM.
With `Cc1n[nH]c(=S)n1/N=C/c1ccc(-c2ccccc2[N+](=O)[O-])o1`, the AC50 is inactive: > 30 µM.
As for `COc1ccc(OCC(=O)NCCCn2ccnc2)cc1`, the figure is inactive: > 30 µM; as for `CN(C)CCCNc1ccc(S(N)(=O)=O)cc1[N+](=O)[O-]`, inactive: > 30 µM.
For the compound `O=c1c(OC2OC(CO)C(O)C(O)C2O)c(-c2ccc(O)c(O)c2)oc2cc(O)cc(O)c12` (configuration not stated), the AC50 was inactive: > 30 µM.
The figure for `CCc1nnc(NC(=O)CCN2C(=O)c3ccccc3C2=O)s1` is inactive: > 30 µM; for `CC(=O)Nc1ccc(NC(=O)c2cc(-n3cnnc3)ccc2Cl)cc1` it is inactive: > 30 µM; for `C[C@H](NC(=O)c1nc[nH]c1C(=O)NC1CCN(C(=O)OC(C)(C)C)CC1)C(=O)OC(C)(C)C` it is inactive: > 30 µM.
Consider `Cn1c2ccc(F)cc2c2nc3ccccc3nc21`, for which the AC50 was inactive: > 30 µM.
The figure for `CCN1CCN(c2c(Cl)cccc2NC(=O)c2cccs2)CC1` is inactive: > 30 µM; for `CC1(C)CC(=O)C(C2c3ccccc3S(=O)(=O)c3ccccc32)C(=O)C1` it is inactive: > 30 µM; for `COc1cc(C2C(C#N)=C(N)Oc3n[nH]c(-c4cccs4)c32)cc(OC)c1O` (configuration not stated) it is inactive: > 30 µM.
The figure for `Cc1ccc(-c2nnc(N3CCN(C(=O)COc4cccc(C)c4)CC3)c3ccccc23)cc1` is inactive: > 30 µM.
`CCSc1nc(N)c(C#N)c(-c2ccco2)c1C#N`: the AC50 is inactive: > 30 µM.
With `CCC1(CC)NC(=O)N(CC(=O)Nc2sc3c(c2C(N)=O)CCC3)C1=O`, the AC50 was inactive: > 30 µM.
Take `O=C(Nc1ccsc1C(=O)NC1CCCCC1)c1ccccc1`: the AC50 is inactive: > 30 µM.
For `CN(CCO)c1ncnc2c1sc1nc(N3CCOCC3)c3c(c12)CCC3`, the AC50 is inactive: > 30 µM.
The figure for `CSc1ccc(CN2CCN(Cc3ccc([N+](=O)[O-])cc3)CC2)cc1` is inactive: > 30 µM; for `COc1ccc(-c2cn3cccnc3n2)cc1NC(=O)C1CCCC1` it is inactive: > 30 µM.
The figure for `CNS(=O)(=O)c1cccc(C(=O)OCC(=O)Nc2ccc(Cl)cn2)c1` is inactive: > 30 µM.
On to `O=C(O)c1ccc(N=Cc2c(O)ccc3oc4c(c23)CCCC4)cc1`, for which the AC50 is inactive: > 30 µM.
In the case of `COc1cc(CN2CCN(Cc3ccc([N+](=O)[O-])cc3)CC2)c([N+](=O)[O-])cc1OC`, the AC50 is inactive: > 30 µM.
As for `O=c1c2ccccc2nnn1CSc1nnc(-c2ccc3c(c2)OCO3)o1`, the figure is inactive: > 30 µM; as for `CCC(CC)c1nnc(NC(=O)CCN2C(=O)c3ccccc3C2=O)s1`, inactive: > 30 µM.
The figure for `COc1ccc(S(=O)(=O)Nc2ccc(S(=O)(=O)Nc3nc(C)cc(C)n3)cc2)cc1OC` is inactive: > 30 µM; for `Cc1ccc(NC(=O)C2CCN(c3ncnc4sc(C)c(C)c34)CC2)cc1S(=O)(=O)N(C)C` it is inactive: > 30 µM.
The figure for `CCCCc1ccc(NC(=O)N[C@@H](C)C(=O)O)cc1` is inactive: > 30 µM.
Consider `CN(C)/N=C/c1cn(-c2ccccc2)nc1-c1cccnc1`, for which the AC50 is inactive: > 30 µM.
As for `CCOc1ccc(/C=C/C2=Cc3c(sc(NC(=O)CSc4n[nH]c(N)n4)c3C#N)C(C)(C)C2)cc1`, the figure is inactive: > 30 µM; as for `Cc1ccc2nc(-c3ccncc3)[nH]c2c1`, inactive: > 30 µM.
As for `CCCNC(=O)Cn1c(-c2ccc(F)cc2)cc(C(=O)OCC)c1C`, the figure is inactive: > 30 µM; as for `CCCCCCCCCCOC(=O)Cn1c(COc2ccc(OC)cc2)[n+](C)c2ccccc21`, inactive: > 30 µM; as for `CCSc1cc(N2CCCC2)nc(-c2ccccc2)n1`, inactive: > 30 µM.
As to `S=C(Nc1ccc(Nc2ccccc2)cc1)Nc1ccccn1`, the AC50 is inactive: > 30 µM.
The figure for `CCCCCCCOC(=O)C1=C(C)Nc2ncnn2C1c1cccs1` (configuration not stated) is inactive: > 30 µM; for `O=C(Cn1ccc(C(F)(F)F)n1)N=Nc1c(O)[nH]c2ccc(Br)cc12` it is inactive: > 30 µM.
The figure for `O=[N+]([O-])c1ccccc1-c1cc(-c2ccccc2O)n[nH]1` is inactive: > 30 µM; for `COc1ccc2nc(SCc3nc(N)nc(Nc4ccccc4)n3)[nH]c2c1` it is inactive: > 30 µM; for `O=S(=O)(O)c1cccc(N=Nc2c(O)ccc3ccccc23)c1` it is inactive: > 30 µM.
As for `Cc1c(C(=O)NCCc2ccccc2)oc2ccccc12`, the figure is inactive: > 30 µM; as for `CC(=O)c1cccc(NC(=O)c2cc(-n3cnnc3)ccc2Cl)c1`, inactive: > 30 µM; as for `COc1cc(C(=O)Oc2cc(C)cc(C)c2)cc(OC)c1OC`, inactive: > 30 µM.
For the compound `COc1ccc(/C=C2\Oc3cc(OCC(=O)N4CCC[C@H]4C(=O)O)ccc3C2=O)c(OC)c1`, the AC50 is inactive: > 30 µM.
As to `O=C(Nc1ccccc1)c1ccc(CSc2ncccn2)cc1`, the AC50 is inactive: > 30 µM.
As for `Cc1sc(NC(=S)NC(=O)C(C)(C)C)c(C(N)=O)c1C`, the figure is inactive: > 30 µM.
As for `COc1ccccc1Nc1nc2c(s1)CCC2`, the figure is inactive: > 30 µM.
